From US5643726

Chains of the proteins cited; added tags and fusions are not shown. Where a name states a change or a piece, a line headed by the entry shows the natural chain unless it says otherwise. A line that says so, or that is headed by a name, gives the form on record, which may keep a tag or linker.
UniProt P22415: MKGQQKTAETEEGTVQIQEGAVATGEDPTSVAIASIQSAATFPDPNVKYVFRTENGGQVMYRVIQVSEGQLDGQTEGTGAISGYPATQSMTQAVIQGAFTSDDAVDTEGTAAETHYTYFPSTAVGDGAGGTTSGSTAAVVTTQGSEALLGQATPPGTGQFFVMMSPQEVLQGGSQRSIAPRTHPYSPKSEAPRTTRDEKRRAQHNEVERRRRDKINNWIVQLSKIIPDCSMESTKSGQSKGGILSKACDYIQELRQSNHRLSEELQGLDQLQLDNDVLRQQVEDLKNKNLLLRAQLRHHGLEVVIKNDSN
c-Fos/c-Jun (AP-1) in H4 nuclear extract (Homo sapiens), one chain, as listed by the source, chain 2 of 2: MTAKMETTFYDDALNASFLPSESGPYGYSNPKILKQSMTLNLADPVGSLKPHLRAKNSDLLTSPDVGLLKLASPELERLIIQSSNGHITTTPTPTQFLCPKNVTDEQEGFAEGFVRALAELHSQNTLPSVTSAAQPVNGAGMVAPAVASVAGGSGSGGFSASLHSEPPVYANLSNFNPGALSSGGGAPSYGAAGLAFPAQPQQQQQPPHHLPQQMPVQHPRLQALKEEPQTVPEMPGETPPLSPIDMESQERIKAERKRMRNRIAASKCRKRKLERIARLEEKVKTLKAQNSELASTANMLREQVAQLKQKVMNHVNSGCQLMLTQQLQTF
c-Fos/c-Jun (AP-1) in H4 nuclear extract (Homo sapiens), one chain, as listed by the source, chain 1 of 2: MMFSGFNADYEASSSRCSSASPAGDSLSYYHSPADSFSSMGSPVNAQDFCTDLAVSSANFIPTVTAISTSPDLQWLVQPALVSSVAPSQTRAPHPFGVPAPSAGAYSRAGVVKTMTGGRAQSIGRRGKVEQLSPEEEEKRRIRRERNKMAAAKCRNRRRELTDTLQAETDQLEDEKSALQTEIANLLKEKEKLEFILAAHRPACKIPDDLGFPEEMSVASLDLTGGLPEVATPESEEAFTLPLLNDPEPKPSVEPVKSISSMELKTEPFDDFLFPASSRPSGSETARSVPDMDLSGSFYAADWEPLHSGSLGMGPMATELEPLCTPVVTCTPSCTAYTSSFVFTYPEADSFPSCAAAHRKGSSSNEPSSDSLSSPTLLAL

Legend:
[1] = tested on: USF in HeLa nuclear extract (Homo sapiens); assay: competition with a labelled probe; conditions: indirect, protein in an extract
[2] = target: USF in H4 neuroglioma nuclear extract (43 kDa) (Homo sapiens) (UniProt P22415); assay: EMSA; conditions: protein in an extract, label: 32P
[3] = tested on: c-Fos/c-Jun (AP-1) in H4 nuclear extract (Homo sapiens); assay: competition with a labelled probe; conditions: 50-fold excess DK-1 did not affect AP-1 complex; c-fos mAb did not affect DK-1 complex; protein in an extract; label: 32P
[4] = tested on: USF in HeLa nuclear extract (Homo sapiens); assay: EMSA; conditions: 1 ug HeLa nuclear extract; more binding than H4 extract; protein in an extract; label: 32P
[5] = target: USF in H4 neuroglioma nuclear extract (43 kDa) (Homo sapiens) (UniProt P22415); assay: competition with a labelled probe; conditions: protein in an extract
[6] = tested on: c-Fos/c-Jun (AP-1) in H4 nuclear extract (Homo sapiens); assay: EMSA; conditions: complex diminished by c-fos antibody; protein in an extract; label: 32P
[7] = competes with labeled DK-1, 0-50-fold

“GGGCCGGATCACGTGACTCGCCTGGCTCT (double strand) [USF fragment]” was tested, and the “activity on this sequence” value ([1]; 20-fold excess decreases in vitro transcription from APP promoter, label: 32P) was “active” and the binding result [2] was “binds”.
“GGGCCGGATCAGCTGACTCGCCTGGCTCT (double strand) [DK-1 fragment (APP promoter -58 to -30, AP-1/AP-4)]”: no binding [3]; binds [4]; binds ([2]; 1 ug extract, 20 C, supershifted by anti-USF antiserum).
In the case of “GGGCCGGAATCGTGCTGTCGCCTGGCTCT (double strand) [AP-1/AP-4 Random]”, the “activity on this sequence” value ([1]; same molar excess does not decrease in vitro transcription from APP promoter) is reported as “not active” and the binding result ([5]; did not effectively compete, 0-50-fold) is reported as “no binding”.
“GCTTACTGTCAGCTGACTCGCCTGGCTCT (double strand) [5' Random]”: binds [5, 7].
“GATCACCAGCTGTGGAATGTGTGTGATC (double strand) [AP-4 consensus fragment]”: no binding ([5]; no competition with DK-1 up to 50-fold).
“GGGCCGGATCAGCTGACGATACCTGTCCG (double strand) [3' Random]”: binds [5, 7].
“GATCCAGCTGACTCATCACTAG (double strand) [AP-1 consensus fragment]”: no binding ([5]; no competition with DK-1 up to 50-fold, anti-USF did not affect complex on AP-1 fragment, label: 32P); binds [6].

For part of these data: Where cells or extracts were used, other partners may take part. For part of these data: No signal at the amounts used counts as a negative. For part of these data: The exact form of at least one protein or probe is not confirmed.
